The record followed here is the supplement of paper PMC7824004.

This is one part of the list. The data scatter; read single values as rough.

The subject of the assay is Candida albicans SN425. As to the kind of experiment: biofilm OD600 B-score; higher = more biofilm (less inhibition). The note with it: 10 µM; assay detail: High-throughput adherence inhibition optical density biofilm assay with C. albicans SN425 in RPMI-1640/MOPS pH 7.0, 384-well plates. …. The procedure:
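High-throughput adherence inhibition optical density biofilm assay with C. albicans SN425 in RPMI-1640/MOPS pH 7.0, 384-well plates. Compound (10 µM) was present only during the 90 min adherence step, then washed out, and the biofilm grew 24 h without compound. Biofilm was read as OD600 after removing the media. Scores are the difference from the mean in standard deviations and the plate B-score.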
Regarding `Cc1ccc(SCC(=O)N2CCC(C(N)=O)CC2)cc1`, the “biofilm OD600 B-score” value is -2.72.

Regarding `O=[N+]([O-])c1ccc(N2CCCC2)c(OCCO)c1`, the “biofilm OD600 B-score” value was -0.00328.

With `CC(=O)c1cccc(NC(=O)c2cccc(F)c2)c1`, the “biofilm OD600 B-score” value came out at 1.17.

For the compound `Cn1c(NC(=O)c2cccc(F)c2)cc(=O)n(C)c1=O`, the “biofilm OD600 B-score” value turned out to be 1.75.

`Cc1nc(NC(=O)c2ccncc2)sc1C(=O)N(C)C`: the “biofilm OD600 B-score” value was 0.194.

As to `CC1CCCN(C(=O)C(C)Oc2ccccc2)C1` (stereo not given), the “biofilm OD600 B-score” value was -0.57.

Regarding `CCOc1ccc(CN2CCC(O)CC2)cc1`, the “biofilm OD600 B-score” value was -0.0452.

For `CCOc1ccc(NS(=O)(=O)c2cc(Cl)ccc2OC)cc1`, the “biofilm OD600 B-score” value was -0.168.

On to `Cc1ccc2c(c1)n([O-])c1c([n+]2=O)CCCC1`, for which the “biofilm OD600 B-score” value was -4.44.

For `O=C(Cc1ccccc1)N1CCC(C(=O)N2CCN(c3ccccc3)CC2)CC1`, the “biofilm OD600 B-score” value is -1.74.

Consider `Nc1ccc(Oc2ccc(N)c(N)c2)cc1`, for which the “biofilm OD600 B-score” value is -7.16.

With `Cc1ccc(C(=O)Nc2nc(C)c(C(=O)N(C)C)s2)o1`, the “biofilm OD600 B-score” value stood at 3.12.

For the compound `COCC(=O)NCCc1ccc(OC)cc1`, the “biofilm OD600 B-score” value was found to be 1.11.

Take `O=C(NC1CC1)c1cc(C(=O)NC2CC2)cc(C(=O)NC2CC2)c1`: the “biofilm OD600 B-score” value came out at 1.67.

Take `CCCc1cc2c(cc1N)OCO2`: the “biofilm OD600 B-score” value is -1.6.

With `O=C(NCC(=O)N1CCOCC1)C1CCCCC1`, the “biofilm OD600 B-score” value is 0.474.

On to `O=C(Nc1ccc(CN2CCCC2)cc1)c1cccs1`, for which the “biofilm OD600 B-score” value stood at 1.1.

In the case of `NC(=O)C(Cc1ccccc1)N1CC(=O)NC(=O)C1` (stereo not given), the “biofilm OD600 B-score” value is -3.76.

For `O=C(COc1ccccc1Cl)N1CCCC1`, the “biofilm OD600 B-score” value is -0.846.

`COc1ccc(NC(=O)NC(C)c2ccccc2)cc1` (stereo not given): the “biofilm OD600 B-score” value was determined as 0.719.

Regarding `CC1CN(CC(O)COc2ccc(Cl)cc2Cl)CC(C)O1` (stereo not given), the “biofilm OD600 B-score” value was 0.725.

As to `O=C(O)C1CCCCCN1` (stereo not given), the “biofilm OD600 B-score” value is -1.82.

Consider `Cc1cc(C)c2c(=O)[nH]c(SCC(N)=O)nc2n1`, for which the “biofilm OD600 B-score” value is -1.27.

Consider `CN(C)CC(C)(C)CNC1CC2CCC1C2` (stereo not given), for which the “biofilm OD600 B-score” value was 0.602.

Turning to `COc1ccccc1N1CCN(C(=O)Nc2cccc(F)c2)CC1`, the “biofilm OD600 B-score” value turned out to be 2.21.

Turning to `COCCNC(=O)Nc1ccc2nc(-c3ccccn3)c(-c3ccccn3)nc2c1`, the “biofilm OD600 B-score” value was 1.29.

As for `Cc1ccc(NC(=O)Nc2ccc3snnc3c2)cc1`, the “biofilm OD600 B-score” value was 0.832.

`N#Cc1sc2nc(-c3ccccc3)ccc2c1N`: the “biofilm OD600 B-score” value is -0.17.

Turning to `COc1ccc(NC(=O)CNC(=O)C2CCCCC2)cc1`, the “biofilm OD600 B-score” value is 3.39.

For the compound `CCN(CC)C(=O)C1CCCN(Cc2cccc(C)c2)C1` (stereo not given), the “biofilm OD600 B-score” value is -0.816.

Regarding `Cc1onc(-c2ccccc2)c1C(=O)N1CCCCCC1`, the “biofilm OD600 B-score” value is -0.484.

`O=C(CSc1ccccn1)c1ccc2c(c1)OCO2`: the “biofilm OD600 B-score” value is -1.84.

For the compound `COCC(=O)Nc1ccccc1C(C)C`, the “biofilm OD600 B-score” value is -0.0188.

In the case of `CCOc1ccc(NS(=O)(=O)c2cc(C(=O)O)ccc2OC)cc1`, the “biofilm OD600 B-score” value was -3.24.

Consider `COc1ccc(CCNC(=O)c2cccnc2)cc1`, for which the “biofilm OD600 B-score” value came out at 0.0452.

As to `CC(=O)Nc1ccc(S(=O)(=O)NCc2cccs2)cc1`, the “biofilm OD600 B-score” value amounted to 1.22.

Turning to `CC(=O)Nc1cccc(OCC(=O)Nc2ccc(C)cc2)c1`, the “biofilm OD600 B-score” value is 1.76.

Consider `COc1ccc(C(=O)NCCc2ccc(F)cc2)c(OC)c1`, for which the “biofilm OD600 B-score” value is -1.31.

In the case of `OCCN(CCO)CC1CC2C=CC1C2` (stereo not given), the “biofilm OD600 B-score” value amounted to 0.921.

Regarding `Cc1cc(NC(=O)c2sc3cc(F)ccc3c2Cl)no1`, the “biofilm OD600 B-score” value turned out to be 0.761.
